Assay results: PubChem BioAssay AID2685 (National Center for Advancing Translational Sciences (NCATS), 2010)
Some of the results follow. The main result of the screen is listed elsewhere. These columns were measured beside it and carry no call. Most of these compounds were active or inconclusive in the main read-out, so they are no random draw. Words in brackets tell the shape of the fitted curve; partial curves, single points and poor fits give uncertain potencies.

Experiment: qHTS Assay for Lipid Storage Modulators in Drosophila S3 Cells;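 for cell number change: cells counted by Cell Tracker Red CMTPX staining in the red channel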
Settings: BODIPY lipid droplet fluorescence, 18-24 h; for cell number change: measured here: cell count max response, cells fed with added oleic acid
Summary of the method: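 Drosophila S3 cells got compounds at several concentrations plus oleic acid (400 uM solution). Laser-scanning cytometry with 488 nm excitation read lipid droplets at 500-530 nm and cells at 575-640 nm. Percent activity was relative to 20 uM Triacsin C.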

[1] = measured here: lipid fluorescence (Fed channel) AC50, cells fed with added oleic acid
[2] = measured here: cell number channel AC50, cells fed with added oleic acid

| Structure (SMILES) | cell number change | AC50 [1] | AC50 [2] |
| --- | --- | --- | --- |
| O=C(CSc1ncnc2c1cnn2CCO)Nc1cccc(C(F)(F)F)c1 | 10.5% | 2.59 µM [rising, full curve, poor fit] | – |
| CSCc1ccc(C(=O)N2CCC(CCC(=O)N(C)Cc3ccccc3)CC2)o1 | – | 1.03 µM [falling, full curve, poor fit] | – |
| CC1(C)CC(=O)C(C=Nc2ccc(N)cc2)=C(O)C1 | -18.3% | 0.651 µM [falling, single point] | 0.82 µM [falling, single point] |
| COc1ccccc1CCNC(=O)c1cccc(S(=O)(=O)N2CCc3ccccc3C2)c1 | -13.2% | 29.1 µM [falling, single point] | 0.731 µM [falling, single point] |
| CC1CC(C)CN(S(=O)(=O)c2ccc3oc(=O)ccc3c2)C1 (stereo not drawn) | 8.58% | 29.1 µM [rising, single point] | – |
| CC(NC(=O)C(=O)NCCN1CCN(C(=O)c2ccc([N+](=O)[O-])cc2)CC1)c1ccccc1 (stereo not drawn) | 7.69% | – | – |
| CC(C)(C)NC(=O)CN1CCC(O)(c2ccccc2)CC1 | -1.11% | – | – |
| O=C(O)c1ccccc1C(=O)NC1CCN(c2nccc(C(F)(F)F)n2)CC1 | -16.3% | 5.17 µM [falling, full curve] | – |
| CC(=O)c1cccc(NC(=O)COC(=O)c2cccc(N3C(=O)c4ccccc4C3=O)c2)c1 | 20% | 0.116 µM [rising, full curve, poor fit] | – |
| O=[N+]([O-])c1ccc(S(=O)(=O)Nc2nc(-c3ccccc3)cs2)cc1 | -14.3% | 18.4 µM [falling, single point] | – |
| COc1ccc(C(C(=O)NCc2ccc(F)cc2)N(C(=O)c2csnn2)C2CC2)cc1 (stereo not drawn) | -7.62% | 0.206 µM [falling, single point] | – |
| Cc1cccc(NC(=O)c2cc(S(=O)(=O)N3CCCC3)cn2C)c1 | 25.6% | 0.651 µM [rising, full curve] | 0.00517 µM [rising, full curve, poor fit] |
| O=C1N(c2ccccc2C(F)(F)F)O[C@]1(c1ccccc1)C1CCCCC1 | -82.1% | – | 29.1 µM [falling, single point] |
| CCc1nnc(NC(=O)C2CCC(CNc3c(N4CCCCC4)c(=O)c3=O)CC2)s1 (stereo not drawn) | 15.5% | 25.9 µM [rising, single point] | – |
| O=C(Nc1cccc(S(=O)(=O)N2CCCCC2)c1)C1CC1 | 3.25% | – | – |
| CC1CN(c2c3c(nc4ncnn24)CCCC3)CC(C)O1 (stereo not drawn) | -3.68% | 0.651 µM [falling, single point] | 1.16 µM [falling, full curve] |
| COc1cccc(CC(CC(=O)O)C(=O)Nc2cc(C)ccc2C)c1 (stereo not drawn) | 3.94% | – | – |
| O=C(CSc1nnc(-c2ccncc2)n1Cc1ccccc1)NC1CCCCC1 | 15.5% | 0.259 µM [rising, full curve, poor fit] | – |
| CN(CC(O)COC(c1ccccc1)c1ccccc1)C1CCCCC1 (stereo not drawn) | 7.08% | – | 6.51 µM [rising, partial curve, poor fit] |
| Cc1cccc(CCNC(=O)CN(C)S(=O)(=O)c2ccc3c(c2)c(=O)n(C)c(=O)n3C)c1 | -14% | – | – |

Limited to AC50 [2] and AC50 [1], for some of the entries so far:

| Structure (SMILES) | AC50 [2] | AC50 [1] |
| --- | --- | --- |
| O=C1N(c2ccccc2C(F)(F)F)O[C@]1(c1ccccc1)C1CCCCC1 | 29.1 µM [falling, single point] | – |
| CCc1nnc(NC(=O)C2CCC(CNc3c(N4CCCCC4)c(=O)c3=O)CC2)s1 (stereo not drawn) | – | 25.9 µM [rising, single point] |

The results go on:

| Structure (SMILES) | cell number change | AC50 [1] | AC50 [2] |
| --- | --- | --- | --- |
| Cc1ccc(Sc2ncnc3onc(C)c23)cc1 | -50.4% | 29.1 µM [falling, single point] | 29.1 µM [falling, single point] |
| COc1ccc(C(=O)Nc2ccc3c(c2)C(=O)c2ccccc2C3=O)cc1OC | -22.7% | 0.116 µM [rising, full curve, poor fit] | – |
| COc1cc(NC(=O)N2CCOCC2)cc(OC)c1 | 19.6% | 6.51 µM [falling, single point] | – |
| O=C(c1ccc(Cl)c([N+](=O)[O-])c1)N(Cc1ccco1)C1CCS(=O)(=O)C1 (stereo not drawn) | -22.1% | 29.1 µM [rising, single point] | – |
| COc1ccc(-c2[nH]ncc2-c2nc(C)cs2)c(O)c1 | -30.6% | – | – |
| CCOc1ccc(N(CC(=O)N2CCc3ccccc32)S(=O)(=O)c2c(C)noc2C)cc1 | -19.4% | 0.651 µM [falling, full curve, poor fit] | 0.461 µM [falling, single point] |
| Cc1sc2ncnc(NCCCO)c2c1C | 23.6% | 0.517 µM [falling, single point] | 0.58 µM [falling, single point] |
| CN(Cc1ccc(F)cc1)C(=O)c1cccc(S(=O)(=O)N2CCN(c3ccccc3)CC2)c1 | -25% | – | 4.11 µM [falling, single point] |
| COc1ccc(S(=O)(=O)N2CCCCCC2)cc1C(=O)N(C)Cc1ccccc1F | -11.5% | – | – |
| O=C(Nc1cccc(S(=O)(=O)NCc2ccco2)c1)c1cc(-c2ccc(F)cc2)nc2ccccc12 | – | 29.1 µM [falling, single point] | – |
| CCOC(=O)c1c(C)[nH]c(C)c1C(=O)COC(=O)COc1ccc(Cl)c(C)c1 | -2.01% | – | – |
| CC(=O)c1cccc(NC(=O)NCCS(C)=O)c1 (stereo not drawn) | 2% | 29.1 µM [rising, single point] | – |
| O=S(=O)(Nc1nc2ccccc2[nH]1)c1ccc(Cl)cc1 | -11.2% | 0.146 µM [rising, full curve, poor fit] | – |
| NS(=O)(=O)c1ccc(-c2ccc(/C=C3\C(=O)Nc4ccccc43)o2)cc1 | 21.7% | – | – |
| O=C(Nc1ccc(Cc2ccncc2)cc1)C1CCC(N2C(=O)C3CC=CCC3C2=O)CC1 (stereo not drawn) | -8.6% | – | – |
| COc1ccccc1NC(=O)C1=C(C)Nc2nnnn2C1c1ccccn1 (stereo not drawn) | 36.6% | – | 5.8 µM [rising, single point] |
| CCC1(c2ccc(Cl)cc2)NC(=O)N(CC(=O)NC2CCCCCC2)C1=O (stereo not drawn) | 20.1% | – | – |
| O=C(CCl)N(c1ccc(Cl)cc1)c1c[nH]c2ccccc12 | -46.2% | 29.1 µM [falling, single point] | 18.4 µM [falling, single point] |
| O=C(CSc1nnc(-c2ccc(O)cc2)n1Cc1ccco1)c1ccccc1 | – | 6.51 µM [rising, single point] | 6.51 µM [rising, single point] |
